The text below walks through data of paper PMC6289461, “Mek1 coordinates meiotic progression with DNA break repair by directly phosphorylating and inhibiting the yeast pachytene exit regulator Ndt80”.

For this experiment, the target named is T1, lexA-Mek1 (yeast) (UniProt P24719).
T1 sequence: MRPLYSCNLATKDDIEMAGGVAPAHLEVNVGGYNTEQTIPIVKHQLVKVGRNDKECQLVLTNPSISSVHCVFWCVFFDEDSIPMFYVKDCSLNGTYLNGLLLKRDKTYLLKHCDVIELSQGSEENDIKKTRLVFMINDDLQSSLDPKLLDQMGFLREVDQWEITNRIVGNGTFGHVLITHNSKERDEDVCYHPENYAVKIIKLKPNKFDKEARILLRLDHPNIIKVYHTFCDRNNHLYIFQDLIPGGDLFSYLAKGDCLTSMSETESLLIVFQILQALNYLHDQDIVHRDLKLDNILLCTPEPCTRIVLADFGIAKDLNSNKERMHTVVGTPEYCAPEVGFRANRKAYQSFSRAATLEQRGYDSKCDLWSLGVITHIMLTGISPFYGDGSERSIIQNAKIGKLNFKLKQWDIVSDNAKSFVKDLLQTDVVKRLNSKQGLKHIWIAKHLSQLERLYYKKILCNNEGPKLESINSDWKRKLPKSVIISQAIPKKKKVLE
As to the kind of experiment: two-hybrid; directed test: lexA and GAD plasmids co-transformed into L40; ten-fold dilutions spotted on SD-Leu-Trp-His (HIS3) and beta-galactosidase filter assay (lacZ), 30°C.

No constants are given. Whether binding was seen depends on the method and setting. Some results given as binding are weak or reduced against the parent protein; the word gives no strength.

B1: GAD-bc (domain or fragment, UniProt P38830 346-402)
chain: NSSQNSTKRKMPSMAQPLNESCLNARPSKRRSKVALGAPNSGASISPIKSRQSTPME
Regarding B1, the binding entry is reported as “binds”.
